# Results from PubChem BioAssay AID1671190 (National Center for Advancing Translational Sciences (NCATS), 2021).
# By UniProt entry, the sequences of proteins in these tests, tags left out. Where a name states a change or a piece, a line headed by the entry shows the natural chain unless it says otherwise.
# UniProt P18054: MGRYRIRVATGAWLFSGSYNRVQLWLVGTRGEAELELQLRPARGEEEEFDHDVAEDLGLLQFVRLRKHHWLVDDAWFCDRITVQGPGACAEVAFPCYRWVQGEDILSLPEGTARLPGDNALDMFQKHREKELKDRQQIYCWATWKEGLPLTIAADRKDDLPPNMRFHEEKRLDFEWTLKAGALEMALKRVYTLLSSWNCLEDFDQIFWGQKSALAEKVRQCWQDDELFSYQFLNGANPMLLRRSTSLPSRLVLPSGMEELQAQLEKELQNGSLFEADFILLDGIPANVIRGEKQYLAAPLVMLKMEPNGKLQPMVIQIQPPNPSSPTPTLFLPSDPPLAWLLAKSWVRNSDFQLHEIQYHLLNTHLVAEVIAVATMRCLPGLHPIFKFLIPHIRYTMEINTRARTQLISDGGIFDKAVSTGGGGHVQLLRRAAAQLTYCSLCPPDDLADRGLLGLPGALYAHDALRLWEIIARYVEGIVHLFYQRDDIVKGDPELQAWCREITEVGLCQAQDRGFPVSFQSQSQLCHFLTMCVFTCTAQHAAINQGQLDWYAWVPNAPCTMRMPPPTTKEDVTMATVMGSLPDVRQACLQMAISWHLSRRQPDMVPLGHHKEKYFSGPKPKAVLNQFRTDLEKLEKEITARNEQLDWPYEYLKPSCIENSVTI
# The whole screen tested about 580,000 compounds, of which about 6,100 (1.1%) were called active. Inconclusive results, whose numbers are uncertain, are shown with a selection of clear calls. Calls come from the whole dose curve; as a rule, active = well fitted inhibition curve with a large enough effect; inconclusive = small, poorly fitted or top-dose-only effect, or another doubt; inactive = no such curve, though single readings can be large or run the other way. Potencies of inconclusive entries are doubtful fits and often do not repeat.
# Target: Polyunsaturated fatty acid lipoxygenase ALOX12 (Homo sapiens) (UniProt P18054)
# Experiment: Primary qHTS assay for inhibitors of human arachidonate 12S-lipoxygenase (ALOX12): Round 2
# Details: purified 12hLO, xylenol orange hydroperoxide absorbance; activity change, negative = inhibition: at 108 µM (top of the series) unless noted
# Outline: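 Hydroperoxide product was detected by ferrous iron/xylenol orange as the 573 to 405 nm absorbance ratio. Arachidonic acid at 40 uM (final) was turned over for 30 min at room temperature by 150 nM human 12hLO, pH 7.0 Hepes buffer, after 15 min compound preincubation.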
# % is set by controls: 0 for no effect and ±100 for the full control effect; potency is the fitted concentration of half-maximal effect.
SMILES,Potency,"activity change, negative = inhibition"
CCn1c(N)c(C(=O)NCc2ccco2)sc1=S,"inconclusive: 44.7 µM [inhibitor, partial curve, poor fit]",–
O=C(CSc1n[nH]c(=O)c2cc(-c3ccco3)nn12)Nc1ccc(F)cc1,"inconclusive: 35.5 µM [inhibitor, partial curve]",–
COn1c(=O)c(-c2cccs2)[n+]([O-])c2ccccc21,"inconclusive: 35.5 µM [inhibitor, single point]",–
Cc1noc(C)c1CC(=O)NC(c1ccccc1F)c1nccn1C (centres undefined),–,inactive: 40.5%
CCn1ccnc1C1CCN(C(=O)CC2COCCN2)CC1 (centres undefined),"inconclusive: 3.98 µM [inhibitor, full curve]",–
Cc1ccc(-c2nc(N3CCOCC3)sc2C(=O)N2CCCCC2)cc1,–,inactive: -9.22%
Cc1ccc(/C=N/NC(=O)C(O)c2ccccc2)o1 (centres undefined),–,inactive: 14.7%
O=C(Oc1ccc(Cl)cc1)c1ccc2ncsc2c1,"inconclusive: 56.2 µM [inhibitor, partial curve, poor fit]",–
COc1ccccc1CN1CCC2(CC1)OC(=O)N(Cc1ccccc1F)C2(C)c1ccccc1 (centres undefined),"inconclusive: 50.1 µM [inhibitor, partial curve, poor fit]",–
CCCNC(=O)C(C)NC(=O)CCc1c[nH]c2ccccc12 (centres undefined),–,inactive: -1.06%
COc1ccc(CCN=C(N)NS(=O)(=O)c2ccc3ccccc3c2)cc1,–,inactive: -18.9%
O=C(COC(=O)Cc1cccc2ccccc12)Nc1ccc(Cl)cc1,"inconclusive: 89.1 µM [inhibitor, partial curve, poor fit]",–
CC(=O)N1CCN(C(C(=O)O)c2cn(CC(=O)O)c3cc(F)ccc23)CC1 (centres undefined),"inconclusive: 44.7 µM [inhibitor, partial curve, poor fit]",–
Cc1noc(NS(=O)(=O)c2ccc(N/C=C/C(=O)c3cccnc3)cc2)c1C,"inconclusive: 10 µM [inhibitor, full curve, poor fit]",–
COCCNC(=O)c1cc(C2CC2)nc2c1c(C1CCNCC1)nn2C,"inconclusive: 8.91 µM [inhibitor, full curve, poor fit]",–
COc1cc2oc(=O)c(CC(=O)NC3CCS(=O)(=O)C3)c(C)c2cc1Cl (centres undefined),–,inactive: 3.75%
Cc1cccc(-n2nnc3c(sc4nc(C)c(C)cc43)c2=O)c1,"inconclusive: 112 µM [inhibitor, partial curve, poor fit]",–
Cc1ccc(Cn2c(=O)c3cccnc3n(CC(=O)Nc3cccc(C(F)(F)F)c3)c2=O)cc1,"inconclusive: 3.98 µM [inhibitor, full curve, poor fit]",–
Cc1cc(C(=O)CCC(=O)NNC(=O)c2ccccc2O)c(C)s1,"inconclusive: 50.1 µM [inhibitor, partial curve, poor fit]",–
COc1cc2c(cc1OC)C1CCc3cc4c(cc3C1N=C2)OCO4 (centres undefined),"inconclusive: 35.5 µM [inhibitor, partial curve, poor fit]",–
N#Cc1ccccc1NC(=O)C1(c2ccccc2)CCCC1,"inconclusive: 44.7 µM [inhibitor, single point]",–
Cc1ncc(N=Nc2ccccc2)c(-c2ccccc2)n1,–,inactive: -9.17%
Oc1cc(-n2cccn2)c(O)cc1-n1cccn1,"inconclusive: 10 µM [inhibitor, full curve, poor fit]",–

SMILES,Potency,"activity change, negative = inhibition"
O=C(Nc1nc(-c2ccc(Br)s2)cs1)C1CCC1,"inconclusive: 89.1 µM [inhibitor, partial curve, poor fit]",–
CCN1CCN(CC2CC3C=CC2C3)CC1 (centres undefined),"inconclusive: 0.398 µM [inhibitor, full curve, poor fit]",–
CC(C)CC(NC(=O)/C(=C/c1ccc(Cl)cc1)NC(=O)c1ccccc1)C(=O)O (centres undefined),"inconclusive: 141 µM [inhibitor, single point]",–
CCCNc1c(NC(=O)C2CC(=O)N(c3ccccc3)C2)c(=O)oc2ccccc12 (centres undefined),"inconclusive: 126 µM [inhibitor, single point]",–
CSc1cccc(NC(=O)Cn2ccn3nc4c(c3c2=O)CCCCC4)c1,"inconclusive: 22.4 µM [inhibitor, full curve]",–
CC(C)(C)C(=O)N1CCC2(COc3ncccc3[S+](=O)([O-])N2)C1 (centres undefined),–,inactive: 1.66% [at 6.33 µM]
Cc1ccc(C(=O)OCC(=O)NC2CCCCCCC2)cc1C,"inconclusive: 100 µM [inhibitor, single point]",–
CCCc1nc2ccc(NC(C)=O)cc2c(=O)n1Cc1cccc(Cl)c1,"inconclusive: 44.7 µM [inhibitor, single point]",–
COc1ccc(-c2nn(-c3ccccc3)cc2C(=O)Nc2ccc(C(=O)O)cc2)cc1OC,–,inactive: 11.5%
Cc1ccc(C)c(OCCC(=O)N2CCN(S(=O)(=O)c3cc(C)ccc3C)CC2)c1,"inconclusive: 56.2 µM [inhibitor, partial curve, poor fit]",–
COc1ccc(-c2ccc3nnc(CNC(=O)c4cc(Cl)ccc4F)n3n2)cc1,"inconclusive: 100 µM [inhibitor, single point]",–
O=c1n(-c2ccc(C(F)(F)F)cc2)nc2n1CCN([S+](=O)([O-])c1ccccc1)C2,"inconclusive: 112 µM [inhibitor, partial curve, poor fit]",–
Cc1ccc(Nc2nc(-c3ccccc3)cs2)cc1,"inconclusive: 22.4 µM [inhibitor, partial curve]",–
Cn1cc(C2Nc3ccccc3C(=O)N2c2ccc(Cl)cc2)c(=O)n(C)c1=O (centres undefined),"inconclusive: 112 µM [inhibitor, single point]",–
COc1ccc(S(=O)(=O)Nc2nnc(C(C)(C)C)s2)cc1,"inconclusive: 25.1 µM [inhibitor, partial curve, poor fit]",–
COc1ccc(C(=O)Nc2cc(NC(=O)c3ccc(Br)o3)ccc2OC)cc1,–,inactive: -25.1%
Cc1nc(-c2cccc(S(=O)(=O)N3CCCCC3)c2)cs1,–,inactive: -11.6%
CC(C)(C)NC(=O)CSc1nc2ccc(NC(=O)CSc3nnc(N)s3)cc2s1,"inconclusive: 50.1 µM [inhibitor, partial curve, poor fit]",–
CC(C(=O)Nc1ccccc1C(=O)N1CCOCC1)N(c1ccccc1)S(C)(=O)=O (centres undefined),–,inactive: 0%
CS(=O)(=O)N1CCCc2cc(C(=O)CSc3ccc(F)c(F)c3)ccc21,"inconclusive: 79.4 µM [inhibitor, single point]",–
COCCC(=O)N1CCCC(C(=O)c2ccc(Oc3ccccc3)cc2)C1 (centres undefined),–,inactive: -2.9%
Cc1cc(C(=O)N2CCCC(c3noc(COc4ccccc4)n3)C2)nn1C (centres undefined),–,inactive: 30.7%
CCOc1ccc(/C=C/C(=O)c2cc3ccccc3oc2=O)cc1OC,"inconclusive: 20 µM [inhibitor, full curve, poor fit]",–

SMILES,Potency,"activity change, negative = inhibition"
CC1CCN(S(=O)(=O)c2ccc(NC(=O)Cn3cnc4c3c(=O)n(C)c(=O)n4C)cc2)CC1,–,inactive: 3.5%
COC(=O)c1c(C)cccc1C1CN=NC12Cc1ccccc1C2=O (centres undefined),–,inactive: 1.08%
O=C(COc1ccccc1)Nc1ccc([C@@H](O)[C@H]2COCC(=O)N2CCCc2ccccc2)cc1,–,inactive: 27.7%
CCOCCCNC(=O)/C=C/c1ccc(OC)cc1,–,inactive: 48.3%
Cc1ccccc1C(=O)NN1C(=O)CSC1=S,–,inactive: -14.2%
O=C(NCCN1CCCCC1)c1ccc(/C=N/O)nc1,"inconclusive: 89.1 µM [inhibitor, single point]",–
Nc1nc(Nc2cccc(Cl)c2)nc(NCc2ccco2)c1[N+](=O)[O-],"inconclusive: 126 µM [inhibitor, single point]",–
CCOc1ccc(NC(=O)CN(C)C(=O)c2cc(-c3ccncc3)nc3ccccc23)cc1OCC,–,inconclusive: -34.2% [inhibitor]
CC(C)c1ccc(C(=O)NCc2ccco2)cc1,"inconclusive: 50.1 µM [inhibitor, partial curve, poor fit]",–
O=C1N(Cc2cccc(F)c2F)CCCC1(O)CN1CCNCC1 (centres undefined),"inconclusive: 20 µM [inhibitor, full curve, poor fit]",–
CC1Cc2ccccc2N1C(=O)CSc1nnc2c(n1)[nH]c1ccccc12 (centres undefined),–,inactive: -0.599%
Cn1c(=O)c2c(nc(NNC(=O)C(F)(F)F)n2C)n(C)c1=O,"inconclusive: 12.6 µM [inhibitor, partial curve, poor fit]",–
CSc1ccccc1NC(=O)CN1C(=O)C2CC=CCC2C1=O (centres undefined),"inconclusive: 63.1 µM [inhibitor, partial curve, poor fit]",–
O=C1c2ccccc2C(=O)N1CCSc1n[nH]c(=S)s1,"inconclusive: 5.01 µM [inhibitor, full curve, poor fit]",–
COc1ccc(C(=O)N2[C@@H](C(C)C)COc3cc(Br)ccc3S2(=O)=O)cc1,–,inactive: 0.86%
COc1ccccc1-c1noc(-c2ccc(N3CCC(C)CC3)c([N+](=O)[O-])c2)n1,–,inactive: -3.92%
COc1cc(OC)c(OC)cc1/C=C1\Oc2cc(OS(=O)(=O)c3ccccc3)ccc2C1=O,"inconclusive: 126 µM [inhibitor, single point]",–
O=C(Cn1nc2c(cc1=O)CCCC2)NC1CCN(Cc2ccccc2)CC1,–,inactive: 43.2%
COc1ccc2c(c1)OC[C@H]1[C@H]2N2C(=O)CN(Cc3ccco3)C(=O)[C@@]2(C)[C@H]1c1ccccc1,active: 7.08 µM,–
CSc1ccc(/C=N/NC(=O)c2cccs2)cc1,"inconclusive: 100 µM [inhibitor, single point]",–
O=P(NCc1ccccc1)(OCc1ccccc1)OCc1ccccc1,–,inactive: -26.8%
COC(=O)CC(NC(=O)c1cc(C)nc2c1cnn2C(C)C)c1ccc(Br)cc1 (centres undefined),"inconclusive: 44.7 µM [inhibitor, single point]",–
COc1ccc2[nH]c(C[C@@H]3C[C@@H](C(C)C)[C@H](CNC(=O)C4CCC4)C=C3C)nc2n1,–,inactive: 38.3% [at 176 µM]

# Record cards (already shown):
# `Cc1ccc(Nc2nc(-c3ccccc3)cs2)cc1` in the list: Potency: inconclusive: 22.4 µM [inhibitor, partial curve]
# `CCn1ccnc1C1CCN(C(=O)CC2COCCN2)CC1` (centres undefined) in the list: Potency: inconclusive: 3.98 µM [inhibitor, full curve]
# `COCCC(=O)N1CCCC(C(=O)c2ccc(Oc3ccccc3)cc2)C1` (centres undefined) in the list: activity change, negative = inhibition: inactive: -2.9%
